For one molecule, binding results are on record in PMC12535091.

Results are given in words; binding and its absence hold for the method and conditions named. Binding seen in cells or lysates may run through a third protein. Some entries that bind do so weakly or less than the wild type.

For this test, the target named is T1, mouse β2-glycoprotein I (β2GPI, Apolipoprotein H) (mouse (endogenous in C57BL/6 plasma)) (UniProt Q01339).
T1 sequence: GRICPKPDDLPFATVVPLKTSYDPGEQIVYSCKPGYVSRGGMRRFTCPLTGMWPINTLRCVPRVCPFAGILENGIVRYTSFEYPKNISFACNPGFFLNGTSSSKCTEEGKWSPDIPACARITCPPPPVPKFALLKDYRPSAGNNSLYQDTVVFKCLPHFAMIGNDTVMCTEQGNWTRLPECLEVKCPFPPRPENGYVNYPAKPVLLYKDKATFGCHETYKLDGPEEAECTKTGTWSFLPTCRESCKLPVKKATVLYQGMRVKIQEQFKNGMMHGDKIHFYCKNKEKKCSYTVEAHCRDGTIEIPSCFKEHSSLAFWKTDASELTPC
Put plainly: co-IP; mouse plasma (female WT; β2GPI KO as control) diluted 1:5 in PBS, pre-cleared with protein G-Sepharose; sheep anti-mouse β2GPI antibody 10 µg/ml, 14-16 h at 4 °C; blot for Apo E and β2GPI.

B1: mouse Apolipoprotein E (protein, UniProt P08226 19-311)
chain: EGEPEVTDQLEWQSNQPWEQALNRFWDYLRWVQTLSDQVQEELQSSQVTQELTALMEDTMTEVKAYKKELEEQLGPVAEETRARLGKEVQAAQARLGADMEDLRNRLGQYRNEVHTMLGQSTEEIRARLSTHLRKMRKRLMRDAEDLQKRLAVYKAGAREGAERGVSAIRERLGPLVEQGRQRTANLGAGAAQPLRDRAQAFGDRIRGRLEEVGNQARDRLEEVREHMEEVRSKMEEQTQQIRLQAEIFQARLKGWFEPIVEDMHRQWANLMEKIQASVATNPIITPVAQENQ
Turning to B1, the binding entry is on record as “binds”.
